The source of these data is article PMC4942636.

No constants are given. Whether binding was seen depends on the method and setting. In cells and extracts the contact can be indirect. These calls come from enrichment with a bait or labelling near it, and not all partners need be listed. For some assays here: No binding means not detected with the bait. For some assays here: Sequences can lack the tags named with a protein.

Assay [1] has as its target Myc-BirA*-Txnip (human) (UniProt Q9H3M7). Kind of assay: proximity labelling; BioID: Myc-BirA*-Txnip or its C247S mutant stably expressed in HEK293, DMEM with 25 mM glucose and 50 uM biotin for 24 hrs; stringent lysis (0.4% SDS, 500 mM NaCl), biotinylated proteins captured on streptavidin Dynabeads, on-bead trypsin digestion, 1D LC-MS/MS; hits in at least 2 of 3 trials, parental HEK293 as control; also the high glucose arm of cells acclimated to low glucose.

Assay [2] has as its target T1, Myc-BirA*-Txnip C247S (human) (UniProt Q9H3M7).
T1 sequence: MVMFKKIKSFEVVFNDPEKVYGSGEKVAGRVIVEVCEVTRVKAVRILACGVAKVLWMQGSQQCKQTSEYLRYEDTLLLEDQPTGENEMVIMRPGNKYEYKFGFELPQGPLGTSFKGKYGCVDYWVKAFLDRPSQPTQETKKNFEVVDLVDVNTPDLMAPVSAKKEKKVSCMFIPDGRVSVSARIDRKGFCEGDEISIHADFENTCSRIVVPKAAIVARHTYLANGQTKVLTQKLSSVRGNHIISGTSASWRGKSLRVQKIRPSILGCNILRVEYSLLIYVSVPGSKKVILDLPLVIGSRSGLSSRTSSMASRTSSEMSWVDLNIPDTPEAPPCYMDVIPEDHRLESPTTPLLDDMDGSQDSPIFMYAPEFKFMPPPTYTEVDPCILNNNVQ
The description is as above.

B1: DnaJ homolog subfamily C member 7 (protein, UniProt Q99615 1-494)
chain: MAAAAECDVVMAATEPELLDDQEAKREAETFKEQGNAYYAKKDYNEAYNYYTKAIDMCPKNASYYGNRAATLMMLGRFREALGDAQQSVRLDDSFVRGHLREGKCHLSLGNAMAACRSFQRALELDHKNAQAQQEFKNANAVMEYEKIAETDFEKRDFRKVVFCMDRALEFAPACHRFKILKAECLAMLGRYPEAQSVASDILRMDSTNADALYVRGLCLYYEDCIEKAVQFFVQALRMAPDHEKACIACRNAKALKAKKEDGNKAFKEGNYKLAYELYTEALGIDPNNIKTNAKLYCNRGTVNSKLRKLDDAIEDCTNAVKLDDTYIKAYLRRAQCYMDTEQYEEAVRDYEKVYQTEKTKEHKQLLKNAQLELKKSKRKDYYKILGVDKNASEDEIKKAYRKRALMHHPDRHSGASAEVQKEEEKKFKEVGEAFTILSDPKKKTRYDSGQDLDEEGMNMGDFDPNNIFKAFFGGPGGFSFEASGPGNFFFQFG
For the molecule B1, the values for the binding entry in assay [1] and in assay [2] were “binds” and “no binding”, respectively.
